In PubChem BioAssay AID743255 (National Center for Advancing Translational Sciences (NCATS), 2014):
Where “and” joins values, the source holds several entries; their conditions need not be identical. Identical values can stand only once. Out of some 390,000 compounds screened, about 910 (0.23%) were called active. The inconclusive results got no clear call from the source; some entries with a clear call stand among them for comparison. Calls follow the shape of the dose curve; as a rule, active = well fitted inhibition curve with a large enough effect; inconclusive = small, poorly fitted or top-dose-only effect; inactive = no such curve, though single readings can be large or run the other way. Where the call is inconclusive, the potency comes from a doubtful curve fit.

The chains behind the UniProt entries cited, without tags or fusion partners. Where a name states a change or a piece, a line headed by the entry shows the natural chain unless it says otherwise.
UniProt O94782: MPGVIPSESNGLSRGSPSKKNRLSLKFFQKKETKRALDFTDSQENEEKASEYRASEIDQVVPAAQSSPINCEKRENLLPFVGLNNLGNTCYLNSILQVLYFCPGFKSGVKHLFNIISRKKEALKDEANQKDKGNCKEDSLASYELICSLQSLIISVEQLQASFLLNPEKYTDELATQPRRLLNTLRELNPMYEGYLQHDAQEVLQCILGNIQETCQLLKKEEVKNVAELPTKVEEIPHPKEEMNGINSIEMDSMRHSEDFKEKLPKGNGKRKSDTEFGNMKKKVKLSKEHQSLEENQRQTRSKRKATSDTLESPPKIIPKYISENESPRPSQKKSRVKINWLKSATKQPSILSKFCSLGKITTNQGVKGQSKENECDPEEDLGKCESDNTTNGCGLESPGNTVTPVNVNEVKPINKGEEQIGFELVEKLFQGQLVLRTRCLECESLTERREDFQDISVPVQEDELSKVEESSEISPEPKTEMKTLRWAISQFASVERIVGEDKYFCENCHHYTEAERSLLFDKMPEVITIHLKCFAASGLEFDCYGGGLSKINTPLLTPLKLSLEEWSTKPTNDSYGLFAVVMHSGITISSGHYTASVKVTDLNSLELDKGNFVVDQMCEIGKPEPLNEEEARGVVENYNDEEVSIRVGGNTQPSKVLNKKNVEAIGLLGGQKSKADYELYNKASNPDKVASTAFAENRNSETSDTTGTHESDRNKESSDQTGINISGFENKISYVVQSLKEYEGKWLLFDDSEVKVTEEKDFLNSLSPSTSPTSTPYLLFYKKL

biological target: Ubiquitin carboxyl-terminal hydrolase 1 (Homo sapiens) (UniProt O94782); assay: Inhibitors of USP1/UAF1: Primary Screen; conditions: recombinant USP1/UAF1, Ub-Rhodamine cleavage fluorescence; activity change, negative = inhibition: at 57.1 µM (top of the series); also: nearly all actives have a fitted effect of over 60% in size
How it was run: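 USP1/UAF1 complex (1 nM) preincubated 15 min at room temperature with compound, then Ub-Rho substrate (150 nM final) added. Kinetic fluorescence at 480/540 nm over 6 reads at 60 s intervals; 50 mM HEPES pH 7.8, 0.5 mM EDTA, 0.1 mg/ml BSA, 1 mM TCEP, 0.01% Tween-20.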
% is scaled to controls: 0 for no effect and ±100 for the full control effect; potency is read from the fitted curve at half-maximal effect.

SMILES | Potency | activity change, negative = inhibition
O=c1c2ccccc2c(/C=N/c2ncn[nH]2)c(O)n1Cc1ccccc1 | inconclusive: 35.5 µM [inhibitor, partial curve] | –
Cc1ccc(S(=O)(=O)N2CCC(c3nnc(-c4cccc(C)c4)o3)CC2)cc1 | inconclusive: 7.08 µM [inhibitor, single point] | –
CCc1ccc(CNC(=O)c2ccc(NC(=O)N3CCSc4ncccc43)cc2)cc1 | inconclusive: 8.91 µM [inhibitor, partial curve] | –
N#Cc1cc(C(=O)c2cc(F)ccc2O)cn(-c2nccs2)c1=O | active: 25.1 µM | –
Cc1ccc(SCC(=O)Nc2ccc3oc(-c4ccc(F)cc4)nc3c2)cc1 | inconclusive: 1.78 µM [inhibitor, partial curve, poor fit] | –
CC(=O)Nc1ccc(C(=O)Nc2ccc3c(c2)OCCO3)cc1 | – | inactive: -7.22%
O=C(COC(=O)c1ccc([N+](=O)[O-])s1)Nc1ccc(Cl)cn1 | – | inactive: -20.1%
Cn1nnnc1SCCCNCc1ccc(-c2cccc(Cl)c2)o1 | – | inactive: -13.3%
Brc1ccc(-c2nc(N3CCN(c4ccccc4)CC3)c3ccccc3n2)cc1 | inconclusive: 50.1 µM [inhibitor, partial curve, poor fit] | –
C=CCn1c(C)cc(C(=O)CSc2nc3ccccc3c(=O)[nH]2)c1C | – | inactive: 1.35%
Oc1ccccc1-c1nc(/C=C/c2ccccc2)nn1-c1ccccc1 | inactive and inconclusive: 14.1 µM [inhibitor, partial curve, poor fit] | –
COc1ccc(Cl)cc1NC(=O)COC(=O)CC(C)(C)CC1=NS(=O)(=O)c2ccccc2N1 | inconclusive: 44.7 µM [inhibitor, partial curve] | –
COC(=O)c1cc(C)nc2c1c(=O)nc(SCc1cccc(C(F)(F)F)c1)n2C1CC1 | inconclusive: 56.2 µM [inhibitor, partial curve] | –
CC(C)c1ccc(NC(=O)c2cc(S(=O)(=O)NC3CCCCC3)ccc2F)cc1 | inconclusive: 5.62 µM [inhibitor, full curve] | –
COc1ccc(OC(=O)c2cc(S(=O)(=O)N3CCCC3)ccc2Cl)cc1 | inconclusive: 0.355 µM [inhibitor, full curve, poor fit] | –
COc1ccc(C(=O)Nc2nnc(SCC(=O)NC3CC3)s2)cc1 | – | inactive: -16.2%
COc1ccc(C(C)NC(=O)c2ccccc2)cc1 (stereo unspecified) | inconclusive: 5.01 µM [inhibitor, partial curve, poor fit] | –
O=C(C=Cc1ccc2c(c1)OCO2)C=Cc1ccc2c(c1)OCO2 | inconclusive: 39.8 µM [inhibitor, partial curve, poor fit] | –
CCOc1ccccc1NC(=O)N1CCC(N2CCN(Cc3ccccc3)C(=O)C2=O)CC1 | inconclusive: 0.708 µM [inhibitor, full curve, poor fit] | –
Cc1ccc(NC(=O)CN2C(=O)c3ccccc3Sc3ncccc32)c(C)c1 | inconclusive: 50.1 µM [inhibitor, single point] | –

SMILES | Potency | activity change, negative = inhibition
Cc1cccc(NC(=O)Cn2c(=O)oc3cc(S(=O)(=O)N4CCCCCC4)ccc32)c1 | inconclusive: 0.708 µM [inhibitor, full curve] | –
O=C(COc1cccc(Cl)c1)Nc1ccccc1N1CCCCC1 | inconclusive: 50.1 µM [inhibitor, partial curve] | –
C/C=C(\C)C(=O)NCCN1C2=NC[C@H](Cc3ccc(O)cc3)N2C[C@@H]1Cc1ccc(OC)cc1 | inconclusive: 0.282 µM [inhibitor, full curve, poor fit] | –
O=C(Nc1cccc(-c2nc3ccccc3[nH]2)c1)c1cccc(NC(=O)c2ccco2)c1 | inconclusive: 39.8 µM [inhibitor, partial curve, poor fit] | –
C=CCSc1n[nH]c(=O)n1-c1cccc(C(F)(F)F)c1 | – | inactive: -2.23%
Cc1cccc(Nc2nc(N)nc(-c3oc4ccccc4c3C)n2)c1 | inconclusive: 39.8 µM [inhibitor, partial curve] | –
O=C(Nc1nccs1)c1nc[nH]c1C(=O)N1CCc2ccccc2C1 | inconclusive: 0.708 µM [inhibitor, full curve] | –
Cc1c(C=O)c2ccccn2c1C(=O)c1ccccc1Cl | inconclusive: 6.31 µM [inhibitor, single point] | –
C=CCn1c(CCC(=O)O)ccc1-c1ccc(OC)cc1 | inconclusive: 0.562 µM [inhibitor, full curve, poor fit] | –
CCCC(=O)Nc1nnc(S(=O)(=O)N(C)c2ccccc2)s1 | – | inactive: 0.662%
O=C(N/N=C/c1ccc([N+](=O)[O-])o1)c1ccccc1-n1cccc1 | – | inactive: -13%
COc1cccc(/C=N/NC(=O)c2[nH]nc3c2CCc2ccccc2-3)c1O | inconclusive: 35.5 µM [inhibitor, partial curve] | –
CCCCCCCCCCCCCCCC[n+]1ccc(/C=N/O)cc1 | inconclusive: 39.8 µM [inhibitor, single point] | –
O=C(Nc1c(O)c2ccccc2oc1=O)c1ccccc1Cl | inconclusive: 1.12 µM [inhibitor, full curve, poor fit] | –
CCOCCCn1c(=S)[nH]c2cc(C(=O)NCCc3ccc(OC)c(OC)c3)ccc2c1=O | inconclusive: 39.8 µM [inhibitor, partial curve] | –
Nc1nccnc1C(=O)OCC(=O)Nc1ccc2[nH]c(=O)[nH]c2c1 | inconclusive: 44.7 µM [inhibitor, partial curve, poor fit] | –
CCCCCCN1C[C@@H](n2cc(COC(=O)c3ccccc3)nn2)[C@H](O)C[C@@H]1c1ccc(C)cc1 | inconclusive: 50.1 µM [inhibitor, partial curve, poor fit] | –
CCn1c(C)c(C(C)=O)c(N2CCCCC2)nc1=S | – | inactive: -0.471%
C=CCn1c(SCC(=O)N2c3ccccc3Sc3ccccc32)nnc1-c1ccco1 | – | inconclusive: -30.1% [inhibitor]
O=c1c(O)c(-c2cccs2)oc2ccccc12 | inconclusive: 28.2 µM [inhibitor, partial curve] | –
